Test [1] has as its target T1, ACAT1-Flag (human mitochondrial acetyl-CoA acetyltransferase 1, wild type) (human) (UniProt P24752).
T1 sequence: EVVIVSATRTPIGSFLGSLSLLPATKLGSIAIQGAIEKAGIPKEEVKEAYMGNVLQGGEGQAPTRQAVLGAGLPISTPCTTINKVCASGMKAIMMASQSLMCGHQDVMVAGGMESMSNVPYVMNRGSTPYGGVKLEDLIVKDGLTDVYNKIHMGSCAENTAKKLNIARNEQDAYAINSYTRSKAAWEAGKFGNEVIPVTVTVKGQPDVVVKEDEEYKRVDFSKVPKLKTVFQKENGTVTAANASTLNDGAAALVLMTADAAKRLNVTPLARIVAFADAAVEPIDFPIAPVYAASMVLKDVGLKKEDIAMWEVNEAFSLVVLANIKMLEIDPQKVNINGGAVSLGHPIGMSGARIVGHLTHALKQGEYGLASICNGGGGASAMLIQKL
The test is described as follows: co-IP; subcellular fractionation, then IP from RKO, HCT116 or CT26 cells stably expressing EV or ACAT1-Flag/Acat1-Flag; binding found in the nuclear fraction.

The chains behind the UniProt entries cited, without tags or fusion partners. Where a name states a change or a piece, a line headed by the entry shows the natural chain unless it says otherwise. Residues count along the entry.
UniProt P19838: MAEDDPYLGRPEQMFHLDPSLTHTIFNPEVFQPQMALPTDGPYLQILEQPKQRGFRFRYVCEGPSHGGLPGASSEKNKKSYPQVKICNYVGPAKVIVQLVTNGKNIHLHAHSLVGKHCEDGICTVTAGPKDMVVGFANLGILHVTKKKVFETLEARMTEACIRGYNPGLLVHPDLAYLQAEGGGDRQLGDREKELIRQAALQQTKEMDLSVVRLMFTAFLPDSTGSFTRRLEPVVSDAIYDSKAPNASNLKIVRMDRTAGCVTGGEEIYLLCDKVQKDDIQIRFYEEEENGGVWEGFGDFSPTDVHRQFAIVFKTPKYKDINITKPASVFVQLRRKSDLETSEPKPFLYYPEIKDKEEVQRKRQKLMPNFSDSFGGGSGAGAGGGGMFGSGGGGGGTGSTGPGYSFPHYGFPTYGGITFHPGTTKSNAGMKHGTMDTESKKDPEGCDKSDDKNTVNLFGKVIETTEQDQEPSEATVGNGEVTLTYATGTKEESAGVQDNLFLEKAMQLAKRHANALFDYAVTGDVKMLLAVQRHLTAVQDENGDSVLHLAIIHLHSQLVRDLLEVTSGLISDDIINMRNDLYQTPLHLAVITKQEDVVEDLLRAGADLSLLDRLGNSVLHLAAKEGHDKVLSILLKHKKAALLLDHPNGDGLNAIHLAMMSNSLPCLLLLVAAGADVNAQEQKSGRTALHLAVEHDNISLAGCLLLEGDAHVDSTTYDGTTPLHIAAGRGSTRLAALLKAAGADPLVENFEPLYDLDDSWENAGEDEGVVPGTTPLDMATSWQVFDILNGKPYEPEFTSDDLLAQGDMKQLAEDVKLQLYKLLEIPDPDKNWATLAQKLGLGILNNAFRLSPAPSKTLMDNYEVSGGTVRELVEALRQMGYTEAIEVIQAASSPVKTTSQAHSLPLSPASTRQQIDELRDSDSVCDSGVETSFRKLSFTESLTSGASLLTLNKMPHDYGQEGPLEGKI
GST-p50 (1-366aa): residues 1-366 of P19838
UniProt P25799, residues 1-431: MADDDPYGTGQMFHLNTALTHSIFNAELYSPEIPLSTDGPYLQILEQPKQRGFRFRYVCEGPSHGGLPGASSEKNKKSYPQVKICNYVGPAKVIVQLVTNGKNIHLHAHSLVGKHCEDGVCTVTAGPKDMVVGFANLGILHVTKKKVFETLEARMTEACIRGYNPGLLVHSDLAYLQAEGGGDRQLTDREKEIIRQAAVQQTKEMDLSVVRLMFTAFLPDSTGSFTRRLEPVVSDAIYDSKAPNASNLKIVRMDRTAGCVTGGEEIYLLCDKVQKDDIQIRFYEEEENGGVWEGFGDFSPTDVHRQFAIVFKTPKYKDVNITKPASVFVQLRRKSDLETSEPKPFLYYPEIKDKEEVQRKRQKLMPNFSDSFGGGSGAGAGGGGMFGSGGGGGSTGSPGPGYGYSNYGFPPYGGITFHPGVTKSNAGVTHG
UniProt O00629: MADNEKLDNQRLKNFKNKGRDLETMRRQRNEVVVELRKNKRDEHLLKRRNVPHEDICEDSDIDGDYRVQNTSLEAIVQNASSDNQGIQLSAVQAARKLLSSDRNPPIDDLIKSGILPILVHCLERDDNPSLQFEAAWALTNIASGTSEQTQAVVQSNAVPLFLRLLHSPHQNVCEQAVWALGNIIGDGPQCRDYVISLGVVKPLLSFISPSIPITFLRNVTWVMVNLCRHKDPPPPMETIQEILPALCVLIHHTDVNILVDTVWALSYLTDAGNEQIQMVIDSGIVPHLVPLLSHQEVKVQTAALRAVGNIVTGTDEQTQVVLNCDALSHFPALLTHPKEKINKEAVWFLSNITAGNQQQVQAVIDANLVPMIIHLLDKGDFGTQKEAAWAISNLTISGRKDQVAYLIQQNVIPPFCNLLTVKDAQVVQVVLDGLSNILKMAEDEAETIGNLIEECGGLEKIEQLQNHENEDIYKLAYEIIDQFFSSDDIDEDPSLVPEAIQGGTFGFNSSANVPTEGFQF

The target in test [2] is T2, Acat1-Flag (mouse) (mouse) (UniProt Q8QZT1).
T2 sequence: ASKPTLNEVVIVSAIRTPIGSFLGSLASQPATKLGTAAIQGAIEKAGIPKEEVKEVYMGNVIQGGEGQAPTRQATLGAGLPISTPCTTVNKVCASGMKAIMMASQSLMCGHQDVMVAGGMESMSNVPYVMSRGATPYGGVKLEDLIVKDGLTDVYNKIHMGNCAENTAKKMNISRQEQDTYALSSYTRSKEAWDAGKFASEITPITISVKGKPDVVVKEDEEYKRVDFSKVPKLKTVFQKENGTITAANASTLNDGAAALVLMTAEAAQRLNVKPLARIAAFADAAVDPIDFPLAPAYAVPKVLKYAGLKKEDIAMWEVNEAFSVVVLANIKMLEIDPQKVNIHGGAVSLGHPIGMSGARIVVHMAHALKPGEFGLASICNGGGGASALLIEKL
The description is as above.

Test [3] concerns the target T2, Acat1-Flag (mouse) (mouse). The test is described as follows: co-IP; subcellular fractionation, then IP from HCT116 or CT26 cells stably expressing EV or ACAT1-Flag/Acat1-Flag; cytoplasmic fraction.
Test [4] deals with T1, ACAT1-Flag (human mitochondrial acetyl-CoA acetyltransferase 1, wild type) (human). The test is described as above.
Another test addresses T3, ACAT1-Flag S60E (human) (UniProt P24752).
T3 sequence: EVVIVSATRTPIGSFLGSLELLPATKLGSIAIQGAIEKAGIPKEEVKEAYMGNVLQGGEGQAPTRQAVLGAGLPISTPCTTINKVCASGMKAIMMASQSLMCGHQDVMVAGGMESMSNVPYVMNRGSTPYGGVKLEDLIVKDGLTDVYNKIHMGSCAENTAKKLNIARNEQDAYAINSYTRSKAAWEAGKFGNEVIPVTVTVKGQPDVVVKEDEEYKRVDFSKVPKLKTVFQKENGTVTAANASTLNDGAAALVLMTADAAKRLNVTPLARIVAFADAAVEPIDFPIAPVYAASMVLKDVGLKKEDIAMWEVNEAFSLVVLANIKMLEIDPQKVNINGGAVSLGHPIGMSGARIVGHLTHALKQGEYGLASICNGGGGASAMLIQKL
The test is described as follows: co-IP; ACAT1-Flag (WT, S60A or S60E) immunoprecipitated from HCT116 cells stably expressing it; with or without IL18, shPPM1A or U0126; blot for importin α3.

The target of test [5] is T1, ACAT1-Flag (human mitochondrial acetyl-CoA acetyltransferase 1, wild type) (human). The test is described as above.
In another test the target is T4, ACAT1-Flag S60A (human) (UniProt P24752).
T4 sequence: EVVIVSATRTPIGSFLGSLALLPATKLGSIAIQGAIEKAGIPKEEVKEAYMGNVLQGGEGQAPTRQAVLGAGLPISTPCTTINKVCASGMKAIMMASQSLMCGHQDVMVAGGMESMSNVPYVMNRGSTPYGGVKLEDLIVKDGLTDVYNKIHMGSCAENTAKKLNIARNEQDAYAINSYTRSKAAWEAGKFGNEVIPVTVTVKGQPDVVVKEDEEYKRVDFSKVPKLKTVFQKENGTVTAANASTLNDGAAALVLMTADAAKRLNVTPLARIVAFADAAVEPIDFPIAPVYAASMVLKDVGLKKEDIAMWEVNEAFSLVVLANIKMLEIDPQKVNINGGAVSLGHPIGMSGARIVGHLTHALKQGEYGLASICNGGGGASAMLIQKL
The description is as above.

Test [6] addresses T1, ACAT1-Flag (human mitochondrial acetyl-CoA acetyltransferase 1, wild type) (human). The test is described as follows: co-IP; subcellular fractionation, then IP from HCT116 cells stably expressing EV or ACAT1-Flag; blot for importin α3.
For test [7] the target is unchanged. The test is described as follows: proximity ligation; Duolink in situ PLA between endogenous PPM1A/Ppm1a and ACAT1-Flag/Acat1-Flag exogenously expressed in HCT116 and CT26 cells.
Test [8] addresses T2, Acat1-Flag (mouse) (mouse). The description is as above.
In test [9] the target is HA-egfp-p50 (1-366aa) (human) (UniProt P19838). The test is described as follows: co-IP; HA-egfp-p50 (1-366aa) immunoprecipitated from HEK293T cells; blot for ACAT1-Flag.
In test [10] the target is GST-p50 (1-366aa) (human) (UniProt P19838). The test is described as follows: pull-down; GST pulldown: purified ACAT1-His or ACAT1-Flag on GST or GST-p50 (1-366aa); both purified.

From publication PMC12034769 come the findings set out here.

These are yes or no findings as the source states them, for the method shown. For some assays here: Binding seen in cells or lysates may run through a third protein. Some entries that bind do so weakly or less than the wild type. Sequences can lack the tags named with a protein.

Regarding “p105 (NFKB1 precursor), endogenous human (from UniProt P19838 1-968)”, the binding entry in test [1] was “no binding”.

Regarding “p50 (Nfkb1), endogenous mouse (from UniProt P25799 1-431)”, the binding entry is reported as “binds” in [2] and “no binding (condition: in the cytoplasmic fraction)” in test [3].

Take “p50 (NFKB1), endogenous human (from UniProt P19838 1-433)”: the results for the binding result in test [1] and in [4] were “binds” and “no binding (condition: in the cytoplasmic fraction)”, respectively.

Consider “importin α3, endogenous human (from UniProt O00629 1-521)”, for which the binding entry (in the test with ACAT1-Flag S60E (human); in test [5]; with ACAT1-Flag S60A (human); in test [6]) was “binds” each time.

B1: protein phosphatase 1A (PPM1A), endogenous human (enzyme, UniProt P35813 1-382)
chain: MGAFLDKPKMEKHNAQGQGNGLRYGLSSMQGWRVEMEDAHTAVIGLPSGLESWSFFAVYDGHAGSQVAKYCCEHLLDHITNNQDFKGSAGAPSVENVKNGIRTGFLEIDEHMRVMSEKKHGADRSGSTAVGVLISPQHTYFINCGDSRGLLCRNRKVHFFTQDHKPSNPLEKERIQNAGGSVMIQRVNGSLAVSRALGDFDYKCVHGKGPTEQLVSPEPEVHDIERSEEDDQFIILACDGIWDVMGNEELCDFVRSRLEVTDDLEKVCNEVVDTCLYKGSRDNMSVILICFPNAPKVSPEAVKKEAELDKYLECRVEEIIKKQGEGVPDLVHVMRTLASENIPSLPPGGELASKRNVIEAVYNRLNPYKNDDTDSTSTDDMW
Regarding B1, in test [7], the binding result is listed as “binds”.

B2: Ppm1a, endogenous mouse (enzyme, UniProt P49443 1-382)
chain: MGAFLDKPKMEKHNAQGQGNGLRYGLSSMQGWRVEMEDAHTAVIGLPSGLETWSFFAVYDGHAGSQVAKYCCEHLLDHITNNQDFRGSAGAPSVENVKNGIRTGFLEIDEHMRVMSEKKHGADRSGSTAVGVLISPQHTYFINCGDSRGLLCRNRKVHFFTQDHKPSNPLEKERIQNAGGSVMIQRVNGSLAVSRALGDFDYKCVHGKGPTEQLVSPEPEVHDIERSEEDDQFIILACDGIWDVMGNEELCDFVRSRLEVTDDLEKVCNEVVDTCLYKGSRDNMSVILICFPSAPKVSAEAVKKEAELDKYLESRVEEIIKKQVEGVPDLVHVMRTLASENIPSLPPGGELASKRNVIEAVYNRLNPYKNDDTDSASTDDMW
As for B2, the binding entry in test [8] is listed as “binds”.

B3: ACAT1-Flag (human mitochondrial acetyl-CoA acetyltransferase 1, wild type) (enzyme, UniProt P24752 41-427)
chain: EVVIVSATRTPIGSFLGSLSLLPATKLGSIAIQGAIEKAGIPKEEVKEAYMGNVLQGGEGQAPTRQAVLGAGLPISTPCTTINKVCASGMKAIMMASQSLMCGHQDVMVAGGMESMSNVPYVMNRGSTPYGGVKLEDLIVKDGLTDVYNKIHMGSCAENTAKKLNIARNEQDAYAINSYTRSKAAWEAGKFGNEVIPVTVTVKGQPDVVVKEDEEYKRVDFSKVPKLKTVFQKENGTVTAANASTLNDGAAALVLMTADAAKRLNVTPLARIVAFADAAVEPIDFPIAPVYAASMVLKDVGLKKEDIAMWEVNEAFSLVVLANIKMLEIDPQKVNINGGAVSLGHPIGMSGARIVGHLTHALKQGEYGLASICNGGGGASAMLIQKL
For B3, the binding result in [9] is on record as “binds”.

B4: purified ACAT1-Flag (enzyme, UniProt P24752 41-427)
chain: EVVIVSATRTPIGSFLGSLSLLPATKLGSIAIQGAIEKAGIPKEEVKEAYMGNVLQGGEGQAPTRQAVLGAGLPISTPCTTINKVCASGMKAIMMASQSLMCGHQDVMVAGGMESMSNVPYVMNRGSTPYGGVKLEDLIVKDGLTDVYNKIHMGSCAENTAKKLNIARNEQDAYAINSYTRSKAAWEAGKFGNEVIPVTVTVKGQPDVVVKEDEEYKRVDFSKVPKLKTVFQKENGTVTAANASTLNDGAAALVLMTADAAKRLNVTPLARIVAFADAAVEPIDFPIAPVYAASMVLKDVGLKKEDIAMWEVNEAFSLVVLANIKMLEIDPQKVNINGGAVSLGHPIGMSGARIVGHLTHALKQGEYGLASICNGGGGASAMLIQKL
As to B4, the binding entry in test [10] was “binds”.

B5: purified ACAT1-His (enzyme, UniProt P24752 41-427)
chain: EVVIVSATRTPIGSFLGSLSLLPATKLGSIAIQGAIEKAGIPKEEVKEAYMGNVLQGGEGQAPTRQAVLGAGLPISTPCTTINKVCASGMKAIMMASQSLMCGHQDVMVAGGMESMSNVPYVMNRGSTPYGGVKLEDLIVKDGLTDVYNKIHMGSCAENTAKKLNIARNEQDAYAINSYTRSKAAWEAGKFGNEVIPVTVTVKGQPDVVVKEDEEYKRVDFSKVPKLKTVFQKENGTVTAANASTLNDGAAALVLMTADAAKRLNVTPLARIVAFADAAVEPIDFPIAPVYAASMVLKDVGLKKEDIAMWEVNEAFSLVVLANIKMLEIDPQKVNINGGAVSLGHPIGMSGARIVGHLTHALKQGEYGLASICNGGGGASAMLIQKL
For B5, the binding entry in test [10] was “binds”.
